Literature values as cited in patent publication EP3895695A1, “SUPERCRITICAL CARBON DIOXIDE-BASED METHODOLOGY TO FORMULATE BIOACTIVE PREPARATIONS” (Universidad Autónoma de Madrid, priority 2020, dated 2021).

Conditions: at 393.15 K; cited from earlier work

For `O=c1c(O)c(-c2ccc(O)c(O)c2)oc2cc(O)cc(O)c12` [quercetin, 2-(3,4-Dihydroxyphenyl)-3,5,7-trihydroxy-4H-1-benzopyran-4-one,3,3',4',5,6-Pentahydroxyflavone - Quercetin], the “solubility of quercetin in a medium chain triacylglycerol mixture” value is listed as 1.77 ± 0.29 mg/g.
